In the supplement of paper PMC4604168 (melanoma cell lines):
The list shows a part of the results. Single values are uncertain, as repeats are few or missing.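 Cells were imaged in 1,536-well plates, and nuclei stained with an antibody against cleaved PARP were counted against all DNA-stained nuclei to give the apoptosis fraction. Screening doses were chosen to leave most cells alive, and resting and induced cleaved-PARP levels differ strongly between cell lines.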

Legend:
Experiment in all cases: cleaved PARP positive nuclei fraction relative to DMSO control; melanoma cells; higher = more apoptosis
Conditions in all cases: library dose: low library concentration; 72 h
501Mel = system: 501Mel
A101D = system: A101D
A2058 = system: A2058
A375 = system: A375
C32 = system: C32
CBRC013 = system: CBRC013 (line from a melanoma biopsy)
CBRC014 = system: CBRC014 (line from a melanoma biopsy)
CBRC016 = system: CBRC016 (line from a melanoma biopsy)
CBRC017 = system: CBRC017 (line from a melanoma biopsy)

SMILES	cleaved PARP positive nuclei fraction (501Mel) [%]	cleaved PARP positive nuclei fraction (A101D) [%]	cleaved PARP positive nuclei fraction (A2058) [%]	cleaved PARP positive nuclei fraction (A375) [%]	cleaved PARP positive nuclei fraction (C32) [%]	cleaved PARP positive nuclei fraction (CBRC013) [%]	cleaved PARP positive nuclei fraction (CBRC014) [%]	cleaved PARP positive nuclei fraction (CBRC016) [%]	cleaved PARP positive nuclei fraction (CBRC017) [%]
N#Cc1c(O)c2c(-c3ccc(-c4ccccc4O)cc3)csc2[nH]c1=O + CCN(CC)CCCCNc1ncc2cc(-c3cc(OC)cc(OC)c3)c(NC(=O)NC(C)(C)C)nc2n1 [PD173074] (first compound 2 µM, partner dose 0.1 µM)	66.8	148	147	107	50	125	85.9	35.6	74.4
CN(C)S(=O)(=O)c1ccc2c(c1)/C(=C/c1cc3c([nH]1)CCCC3)C(=O)N2 + O=C1NC(=O)/C(=C/c2ccc(-c3ccc(F)cc3O)o2)S1 [AS252424] (first compound 0.4 µM, partner dose 1 µM)	92.4	478	88.8	72.7	92.4	227	137	102	49.4
CCN(CC)CCCCNc1ncc2cc(-c3cc(OC)cc(OC)c3)c(NC(=O)NC(C)(C)C)nc2n1 + Cn1cc(/C=C2\C(=O)Nc3cccnc32)c2ccccc21 [GW441756] (first compound 0.1 µM, partner dose 0.4 µM)	47.4	103	55.9	307	45.8	150	94.6	79.5	72.4
c1cc(-c2cnn3cc(-c4ccc(OCCN5CCCCC5)cc4)cnc23)ccn1 [Dorsomorphin] + COc1cc(N2CCC(N3CCN(C)CC3)CC2)ccc1Nc1ncc(Cl)c(Nc2ccccc2S(=O)(=O)C(C)C)n1 [NVP-TAE684] (first compound 0.4 µM, partner dose 0.08 µM)	84.2	158	112	131	177	254	95.4	31.9	80.1
N#Cc1c(O)c2c(-c3ccc(-c4ccccc4O)cc3)csc2[nH]c1=O + c1cc(-c2cnn3cc(-c4ccc(OCCN5CCCCC5)cc4)cnc23)ccn1 [Dorsomorphin] (first compound 2 µM, partner dose 0.4 µM)	86.9	98.8	114	91.3	130	67.3	344	187	78.9
CCc1ccc(CCOc2ccc(CC3SC(=O)NC3=O)cc2)nc1 (stereo unspecified) [pioglitazone] + O=c1cc(-c2cccc3c2Sc2ccccc2S3)oc(N2CCOCC2)c1 [KU55933] (first compound 2 µM, partner dose 1 µM)	44.2	114	209	139	43.7	94.1	110	122	80.1
COc1ccc2c(c1)CCC1C2CCC2(C)C(NCCCCCCN3C(=O)C=CC3=O)CCC12 (stereo unspecified) + O=c1cc(-c2cccc3c2Sc2ccccc2S3)oc(N2CCOCC2)c1 [KU55933] (first compound 0.4 µM, partner dose 1 µM)	53.6	155	53.1	126	68.4	98.6	98.6	125	85.3
Cc1cc([N+](=O)[O-])ccc1NS(=O)(=O)c1cc(Cl)ccc1Cl + Oc1nc(-c2ccc(C(F)(F)F)cc2)nc2c1CSCC2 [XAV939] (first compound 1 µM, partner dose 2 µM)	72.2	65.2	70.4	50.9	101	148	148	1880	925
O=C(O)c1ccc(-c2c[nH]c3ncc(-c4ccccc4)cc23)cc1C1CCCC1 + COc1ccc(-c2ccc3c(N4CCOCC4)nc(N4C[C@@H](C)O[C@@H](C)C4)nc3n2)cc1CO [KU0063794] (first compound 0.16 µM, partner dose 0.02 µM)	86.2	135	104	170	103	99.3	90.1	34.7	199
O=S(=O)(c1ccccc1)N(CC(F)(F)F)c1ccc(C(O)(C(F)(F)F)C(F)(F)F)cc1 + COc1cc2ncnc(Nc3ccc(Oc4ccccc4)cc3)c2cc1OC [SrcI1] (first compound 1.4 µM, partner dose 2 µM)	108	285	57.9	68	144	86.3	92.5	103	114
CCc1ccc(CCOc2ccc(CC3SC(=O)NC3=O)cc2)nc1 (stereo unspecified) [pioglitazone] + Cc1cc([N+](=O)[O-])ccc1NS(=O)(=O)c1cc(Cl)ccc1Cl [FH535] (first compound 2 µM, partner dose 1 µM)	48.4	96.3	33.3	78	58.8	114	221	556	364
COc1ccc(COc2ccc(Cc3cnc(N)nc3N)cc2OC)cc1 + c1cc(-c2cnn3cc(-c4ccc(OCCN5CCCCC5)cc4)cnc23)ccn1 [Dorsomorphin] (first compound 1 µM, partner dose 0.4 µM)	101	49.7	237	37.4	230	71	96.4	60.1	60.2
CCc1ccc(CCOc2ccc(CC3SC(=O)NC3=O)cc2)nc1 (stereo unspecified) [pioglitazone] + O=S(=O)(c1ccccc1)N(CC(F)(F)F)c1ccc(C(O)(C(F)(F)F)C(F)(F)F)cc1 [T0901317] (first compound 2 µM, partner dose 1.4 µM)	94.7	188	61.2	119	132	21.2	97.4	93.4	99.1
CN(C)S(=O)(=O)c1ccc2c(c1)/C(=C/c1cc3c([nH]1)CCCC3)C(=O)N2 + O=C(Nc1ccccc1)c1cc([N+](=O)[O-])ccc1Cl [GW9662] (first compound 0.4 µM, partner dose 2 µM)	91.6	148	78.9	83.6	72.1	653	101	112	103
N#Cc1c(O)c2c(-c3ccc(-c4ccccc4O)cc3)csc2[nH]c1=O + COc1cc(N2CCC(N3CCN(C)CC3)CC2)ccc1Nc1ncc(Cl)c(Nc2ccccc2S(=O)(=O)C(C)C)n1 [NVP-TAE684] (first compound 2 µM, partner dose 0.08 µM)	100	36.3	161	217	52	42	89.9	36.9	78.1
COc1cc(N2CCC(N3CCN(C)CC3)CC2)ccc1Nc1ncc(Cl)c(Nc2ccccc2S(=O)(=O)C(C)C)n1 + Cn1cc(/C=C2\C(=O)Nc3cccnc32)c2ccccc21 [GW441756] (first compound 0.08 µM, partner dose 0.4 µM)	90	242	125	201	189	61.6	104	42.1	106
COc1ccc(-c2ccc3c(N4CCOCC4)nc(N4C[C@@H](C)O[C@@H](C)C4)nc3n2)cc1CO + O=c1cc(-c2cccc3c2Sc2ccccc2S3)oc(N2CCOCC2)c1 [KU55933] (first compound 0.02 µM, partner dose 1 µM)	58.8	122	98.7	88	96.3	138	79	83.1	65.5
COC(=O)c1sccc1S(=O)(=O)Nc1ccc(Nc2ccccc2)cc1OC + CCCCCCCCCCCC1=C(O)C(=O)C=C(O)C1=O [Embelin] (first compound 1 µM, partner dose 1.2 µM)	61.3	107	57.7	143	209	791	94.6	171	44
CCN(CC)CCCCNc1ncc2cc(-c3cc(OC)cc(OC)c3)c(NC(=O)NC(C)(C)C)nc2n1 + CC(C)CCN1c2nc(Nc3cc(F)c(O)c(F)c3)ncc2N(C)C(=O)C1C [BID1870] (first compound 0.1 µM, partner dose 0.2 µM)	82.9	85.8	31.3	111	61.3	247	85.8	49.6	64.2
Oc1nc(-c2ccc(C(F)(F)F)cc2)nc2c1CSCC2 + Cn1cc(/C=C2\C(=O)Nc3cccnc32)c2ccccc21 [GW441756] (first compound 2 µM, partner dose 0.4 µM)	85.6	57.2	75.8	254	99.4	141	82.5	89.9	70.8
COc1cc2ncnc(Nc3ccc(Oc4ccccc4)cc3)c2cc1OC + Oc1cc(-c2nc(-c3ccccc3)[nH]c2-c2ccncc2)ccc1Cl [L779450] (first compound 2 µM, partner dose 0.2 µM)	45.6	59.6	86.7	129	66.3	181	196	80	63.2
O=S(=O)(c1ccccc1)N(CC(F)(F)F)c1ccc(C(O)(C(F)(F)F)C(F)(F)F)cc1 + COc1cc(N2CCC(N3CCN(C)CC3)CC2)ccc1Nc1ncc(Cl)c(Nc2ccccc2S(=O)(=O)C(C)C)n1 [NVP-TAE684] (first compound 1.4 µM, partner dose 0.08 µM)	59.8	352	84.2	197	121	537	114	131	97
CN(NC(=O)CC(=O)NN(C)C(=S)c1ccccc1)C(=S)c1ccccc1 + O=C(Nc1ccccc1)c1cc([N+](=O)[O-])ccc1Cl [GW9662] (first compound 0.006 µM, partner dose 2 µM)	300	86.7	840	2430	121	214	464	284	172
O=C(O)c1ccc(-c2c[nH]c3ncc(-c4ccccc4)cc23)cc1C1CCCC1 + CC(C)CCN1c2nc(Nc3cc(F)c(O)c(F)c3)ncc2N(C)C(=O)C1C [BID1870] (first compound 0.16 µM, partner dose 0.2 µM)	78.8	134	47.5	296	94.2	171	96.8	138	102

Exported as a markdown table: entries from further up.

| SMILES | cleaved PARP positive nuclei fraction (501Mel) [%] | cleaved PARP positive nuclei fraction (A101D) [%] | cleaved PARP positive nuclei fraction (A2058) [%] | cleaved PARP positive nuclei fraction (A375) [%] | cleaved PARP positive nuclei fraction (C32) [%] | cleaved PARP positive nuclei fraction (CBRC013) [%] | cleaved PARP positive nuclei fraction (CBRC014) [%] | cleaved PARP positive nuclei fraction (CBRC016) [%] | cleaved PARP positive nuclei fraction (CBRC017) [%] |
| --- | --- | --- | --- | --- | --- | --- | --- | --- | --- |
| CN(C)S(=O)(=O)c1ccc2c(c1)/C(=C/c1cc3c([nH]1)CCCC3)C(=O)N2 + O=C1NC(=O)/C(=C/c2ccc(-c3ccc(F)cc3O)o2)S1 [AS252424] (first compound 0.4 µM, partner dose 1 µM) | 92.4 | 478 | 88.8 | 72.7 | 92.4 | 227 | 137 | 102 | 49.4 |
| CCN(CC)CCCCNc1ncc2cc(-c3cc(OC)cc(OC)c3)c(NC(=O)NC(C)(C)C)nc2n1 + Cn1cc(/C=C2\C(=O)Nc3cccnc32)c2ccccc21 [GW441756] (first compound 0.1 µM, partner dose 0.4 µM) | 47.4 | 103 | 55.9 | 307 | 45.8 | 150 | 94.6 | 79.5 | 72.4 |
